# Assay results taken from publication PMC9103030.
# These are yes or no findings as the source states them, for the method shown. Binding calls can cover weak binding; strength is not graded here. For part of these data: In cells and extracts the contact can be indirect. For part of these data: Where a sequence is shown, tags or fusion partners need not be part of it.
# What was measured:
# OsJAZ4-2 (rice) = experiment: two-hybrid; each of 13 full-length OsJAZs as BD (bait, left column) and AD (prey, top row) fusion; yeast Y2HGold; growth on SD/-Leu/-Trp/-His/-Ade; graded strong (++), weak (+), undetectable (-)
# OsJAZ13 (rice) = experiment: as above
# OsJAZ11 (rice) = experiment: as above
# OsJAZ11-cYFP (rice) = experiment: split reporter; BiFC: nYFP and cYFP fusions coexpressed in Nicotiana benthamiana (tobacco) leaf epidermal cells by Agrobacterium infiltration; YFP fluorescence by confocal microscopy
# OsJAZ10 (rice) = experiment: two-hybrid; each of 13 full-length OsJAZs as BD (bait, left column) and AD (prey, top row) fusion; yeast Y2HGold; growth on SD/-Leu/-Trp/-His/-Ade; graded strong (++), weak (+), undetectable (-)
Binder,binding (OsJAZ4-2 (rice)),binding (OsJAZ13 (rice)),binding (OsJAZ11 (rice)),binding (OsJAZ11-cYFP (rice)),binding (OsJAZ10 (rice))
"OsJAZ3 (protein, UniProt Q6ZJU3 1-427) MERDFLGAIWRKEEAAGKPEEHSDYRGGGGGASAAMQWQFPATKVGAASSAFMSFRSSAAAAREEDPKEAAVFDRFSLSGFRPPPRPSPGDAFDGAAAMKQRQFGFNGRQQYAAAAQHGHREQGVDSYGVAAPHHFPSPSPSPRHPVPFGHANPMLRVHSLPNVAGGSPYRNQSFSVGNSVAGSTVGVYGGPRDLQNPKVTQMTIFYDGLVNVFDNIPVEKAQELMLLASRASIPSPPSAARKSDSPISAAAKLTVPEALPARQIVVQKPEASVPLVSGVSNPITIVSQAVTLPKSFSSSNDSAGPKSGGLPLAVTPLSQASPSQPIPVATTNASAIMPRAVPQARKASLARFLEKRKERVSSVAPYPSSKSPLESSDTIGSPSTPSKSSCTDITPSTNNCEDSLCLGQPRNISFSSQEPPSTKLQI",binds,binds,no binding,,
"OsJAZ7 (protein, UniProt Q8H395 1-244) MAASARPVGVGGERATSFAMACSLLSRYVRQNGAAAAELGLGIRGEGEAPRAAPATMSLLPGEAERKKETMELFPQSAGFGQQDAITADSAADAREQEPEKRQLTIFYGGKVLVFNDFPADKAKGLMQLASKGSPVAPQNAAAPAPAAVTDNTKAPMAVPAPVSSLPTAQADAQKPARANASDMPIARKASLHRFLEKRKDRLNAKTPYQASPSDATPVKKEPESQPWLGLGPNAVVKPIERGQ",binds,binds,binds,,
"OsJAZ7-nYFP (protein, UniProt Q8H395 1-244) MAASARPVGVGGERATSFAMACSLLSRYVRQNGAAAAELGLGIRGEGEAPRAAPATMSLLPGEAERKKETMELFPQSAGFGQQDAITADSAADAREQEPEKRQLTIFYGGKVLVFNDFPADKAKGLMQLASKGSPVAPQNAAAPAPAAVTDNTKAPMAVPAPVSSLPTAQADAQKPARANASDMPIARKASLHRFLEKRKDRLNAKTPYQASPSDATPVKKEPESQPWLGLGPNAVVKPIERGQ",,,,binds,
"OsJAZ5 (protein, UniProt Q7XV97 1-188) MSTRAPVELDFLGLRAAAADADDRHAKSGGSSASSSSSIRGMETSAIARIGPHLLRRVIAAAGPPPPPSTAPVPEEMPGAAAAAAPMTLFYNGSVAVFDVSHDKAEAIMRMATEATKAKGLARGNAIVGNFAKEPLTRTKSLQRFLSKRKERLTSLGPYQVGGPAAVGATTSTTTKSFLAKEEEHTAS",binds,no binding,binds,,binds
"OsJAZ12 (protein, UniProt Q7XEZ1 1-171) MAAAGSSSRFAVTCGLLSQYMRERQQPQPPVTVLEAVAEEEEEEDARTMQLFPPRAAAADGVATPSAGTAPLTIFYDGRMVVVDDVPVEKAAELMRLAGSACSPPQPAHAAALPEMPIARKASLQRFLQKRKHRITTTSEPYKKAAVASPAPEKSFAVAPVKDEPATWLGL",binds,no binding,no binding,,binds
"OsJAZ6 (protein, UniProt Q84R94 1-228) MASAKSGERGSSSFAMACSLLSRYVRQNGAAAGELGLGIRGEADANKGKETMELFPQNSGFGSEAAAVKETPDAREQEKRQLTIFYGGKVLVFDDFPAEKAKDLMQMASKSSSTAQNCVLLPSSATATVADNTKVSAVPAPASALPVAQANAPKPVRPNAADLPQARKASLHRFLEKRKDRLQAKAPYQGSPSDASPVKKELQESQPWLGLGPQVAAPDLSLRQESSQ",binds,no binding,binds,,
"OsJAZ8 (protein, UniProt Q69P94 1-232) MAGRATATATAAGKDRSSFAVTCSLLSQFLKEKKGGGGGLQGLGLGLRPAPAAPPAAGAGGAFRPPPTTMNLLSGLDAPAVEVEPNTAETAADELPLIKAPADQQSDESASEAAGEKAQQLTIFYGGKVVVFENFPSTKVKDLLQIVSTGDGVDKNTGTAATQSLPRPAHNSLPDLPIARRNSLHRFLEKRKGRMNANAPYQANCTAAPSKQANGDKSWLGFGQEMTIKQEI",no binding,binds,no binding,,no binding

# Results, then the binder that gave them:
binding (OsJAZ4-2 (rice)),binding (OsJAZ13 (rice)),binding (OsJAZ11 (rice)),binding (OsJAZ11-cYFP (rice)),binding (OsJAZ10 (rice)),Binder
binds,no binding,no binding,,binds,"OsJAZ9 (protein, UniProt Q8GSI0 1-179) MASTDPMTRRFAVACGVLSQYVKANSSQPSTAAPVAQGVSGLMAAAAAAAAAPVVQEPGCEVDGGGQQFTIFYAGKVVVIDRCTPAMAAELMRFASAAQGGGGAPEAPPALVDMPIARKASLKRFLAKRKATPASARSSYVVRAAAAEEEQPPAKKAKAAVERREDWLALGSLGHMHSR"
binds,binds,,,binds weakly,"OsJAZ4 (protein, UniProt Q6ES51 1-416) MERDFLGAIGKDEEQRRHAEERKESDYFGAGGGAAAAAMDWSFASRAALMSFRSSSSAAAAAAREETRELAFPHFSALDGAKMQQASHVLARQKSFGAESHGIPQYAAAAAVHGAHRGQPPHVLNGARVIPASSPFNPNNPMFRVQSSPNLPNAVGAGGGAFKQPPFAMGNAVAGSTVGVYGTRDMPKAKAAQLTIFYAGSVNVFNNVSPEKAQELMFLASRGSLPSAPTTVARMPEAHVFPPAKVTVPEVSPTKPMMLQKPQLVSSPVPAISKPISVVSQATSLPRSASSSNVDSNVTKSSGPLVVPPTSLPPPAQPETLATTTAAAIMPRAVPQARKASLARFLEKRKERVTTVAPYPLAKSPLESSDTMGSANDNKSSCTDIALSSNRDESLSLGQPRTISFCEESPSTKLQI"
no binding,no binding,binds,,,"OsJAZ1 (protein, UniProt Q7XPM8 1-216) MDLLEKKNIKKGGEVEEEVARKGEERKEEEVVVEEKSHQQQQQQGEEELVGLSLAGGRPKVFPMSSPPPNPSQLTIFYGGSVCVYDSVPPEKAQAIMLIAAAAAAAASATKSNAAIAVKPPVMPAANATQAAVSPVLTRSLSLQSTSVATGQPQVAADPSSICKLQADLPIARRHSLQRFLEKRRDRLVSKAPYPTKSSEGMEASGMEVTAEGKAQ"
,,,binds,,"OsJAZ6-nYFP (protein, UniProt Q84R94 1-228) MASAKSGERGSSSFAMACSLLSRYVRQNGAAAGELGLGIRGEADANKGKETMELFPQNSGFGSEAAAVKETPDAREQEKRQLTIFYGGKVLVFDDFPAEKAKDLMQMASKSSSTAQNCVLLPSSATATVADNTKVSAVPAPASALPVAQANAPKPVRPNAADLPQARKASLHRFLEKRKDRLQAKAPYQGSPSDASPVKKELQESQPWLGLGPQVAAPDLSLRQESSQ"
